Data on 24 compounds can be found in PubChem BioAssay AID206 (DTP/NCI, 2004).

The assay concerns nude mice, HT29 intrarenal xenograft, tumor weight T/C. As to the kind of experiment: NCI In Vivo Anticancer Drug Screen. Data for tumor model HT29;CX-1 Human Adenocarcinoma (MER+) (intrarenal inoculation) in NU/NU Swiss (nude) mice. The settings on record: T/C endpoint: mean tumor weight change, higher T/C = larger tumour. Put shortly: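 Tumor-bearing mice received test compound or vehicle, and tumor size or survival was recorded. Values are the treated-group measurement divided by the vehicle-treated control measurement.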

The structures appear in SMILES notation. The list does not hold the whole screen: it gathers tests that were run many times, whatever their T/C, doses with no T/C, and many T/C values between a quarter and a half above the control. Further doses and runs are listed elsewhere. T/C is the treated group as % of the vehicle group. Schedules are NCI's codes, read here as Q, the interval in days (D) or hours (H), X, the number of doses. Some T/C values carry the count of animals alive at the toxicity check (mostly the fifth day); without a count, all were alive then. Some entries hold several experiments; the results are listed from low to high. Some entries give survivors of the animals treated and no T/C: the source holds a T/C of zero for them, seemingly a mark for toxic or unscored doses. Counts of survivors are from the toxicity check (mostly the fifth day) where no day follows; animals may have died later.

With `CCCCC(=O)OCC(=O)[C@]1(O)Cc2c(O)c3c(c(O)c2[C@@H](OC2CC(NC(=O)C(F)(F)F)C(O)C(C)O2)C1)C(=O)c1c(OC)cccc1C3=O` (some centres not stated), under “dose: 512.0 mg/kg/injection, schedule: Q01DX010 (sc), vehicle: distilled water + Tween-80”, the survivor count is reported as 1 of 3 on day 11. For `C1CN2CN3CCN(CN1C3)C2`, the survivor count by setting is: (dose: 400.0 mg/kg/injection, schedule: Q01DX010 (sc), vehicle: saline) 0 of 3 on day 11; (dose: 800.0 mg/kg/injection, schedule: Q01DX010 (sc), vehicle: saline) 0 of 3 on day 11. For the compound `COc1cccc2c1C(=O)c1c(O)c3c(c(O)c1C2=O)C[C@@](O)(/C(C)=N\NC(=O)CO)C[C@@H]3OC1CC(N)C(O)C(C)O1` (some centres not stated), the survivor count (dose: 125.0 mg/kg/injection, schedule: Q04DX004 (sc), vehicle: saline) is recorded as 0 of 3 on day 15. For `NC(=O)c1[nH]nc(C2OC(CO)C(O)C2O)c1O` (configuration not stated), the survivor count runs as follows: (dose: 20.0 mg/kg/injection, schedule: Q04DX004 (sc), vehicle: saline) 1 of 6 on day 15; (dose: 40.0 mg/kg/injection, schedule: Q04DX004 (sc), vehicle: saline) 0 of 6 on day 15; (dose: 80.0 mg/kg/injection, schedule: Q04DX004 (sc), vehicle: saline) 0 of 6 on day 15.

Turning to `COC1/C=C/O[C@@]2(C)Oc3c(C)c(O)c4c(O)c(cc(O)c4c3C2=O)NC(=O)/C(C)=C\C=C\[C@H](C)C(O)[C@@H](C)[C@@H](O)[C@@H](C)[C@H](OC(C)=O)[C@@H]1C` (some centres not stated), the T/C was 140 % of control (dose: 600.0 mg/kg/injection, schedule: Q04DX004 (sc), vehicle: suspension in saline, evaluated on day 15) and 135 % of control (dose: 1200.0 mg/kg/injection, schedule: Q04DX004 (sc), vehicle: suspension in saline, evaluated on day 15). On to `C=C1N(C)c2ccccc2C1(C)C`, for which the survivor count (dose: 400.0 mg/kg/injection, schedule: Q04DX004 (sc), vehicle: saline with Tween-80) is on record as 0 of 6 on day 11. In the case of `COC1=NCN=C2SC=C(N)N=C12`, the survivor count (dose: 300.0 mg/kg/injection, schedule: Q04DX004 (sc), vehicle: saline) was 0 of 6 on day 15. In the case of `O=NN(CCCl)C(=O)NCCCl`, the T/C (dose: 4.0 mg/kg/injection, schedule: Q01DX010 (sc), vehicle: saline, evaluated on day 11) was 140 % of control. For the same compound, the survivor count is recorded as 0 of 3 on day 11 (dose: 32.0 mg/kg/injection, schedule: Q01DX010 (sc), vehicle: saline) and 2 of 4 on day 15 (dose: 120.0 mg/kg/injection, schedule: Q04DX004 (sc), vehicle: suspension in saline). Turning to `CO[C@@]12[C@H](COC(N)=O)C3=C(C(=O)C(C)=C(N)C3=O)N1C[C@@H]1N[C@@H]12`, the survivor count (dose: 5.0 mg/kg/injection, schedule: Q04DX004 (sc), vehicle: saline) is 1 of 3 on day 15; the survivor count (dose: 6.0 mg/kg/injection, schedule: Q04DX004 (sc), vehicle: saline) is on record as 0 of 6 on day 15; the survivor count (dose: 10.0 mg/kg/injection, schedule: Q04DX004 (sc), vehicle: saline) is 0 of 3 on day 15; the survivor count (dose: 12.0 mg/kg/injection, schedule: Q04DX003 (sc), vehicle: saline) is 0 of 6 on day 15; the survivor count (dose: 12.0 mg/kg/injection, schedule: Q04DX004 (sc), vehicle: saline) is 0 of 6 on day 15; the survivor count (dose: 24.0 mg/kg/injection, schedule: Q04DX003 (sc), vehicle: saline) is reported as 0 of 6 on day 15. As for `CCOC(=O)CNC(=O)CCCCSc1ncnc2nc[nH]c12`, for the setting “dose: 900.0 mg/kg/injection, schedule: Q04DX004 (sc), vehicle: saline with Tween-80, evaluated on day 15”, the T/C was 147 % of control. Besides, the survivor count (dose: 1800.0 mg/kg/injection, schedule: Q04DX004 (sc), vehicle: saline with Tween-80) is on record as 1 of 3 on day 15. Turning to `CCCCCn1c(C)cc(/C=C\c2ccc3cc(C)ccc3[n+]2C)c1C`, the survivor count (dose: 8.0 mg/kg/injection, schedule: Q01DX010 (sc), vehicle: Klucel (hydroxypropylcellulose) (HPC)) was 0 of 3 on day 20. With `CN(C)N=Nc1cccc(C(N)=O)c1`, the survivor count (dose: 200.0 mg/kg/injection, schedule: Q04DX004 (sc), vehicle: Klucel (hydroxypropylcellulose) (HPC)) is 0 of 6 on day 15. In the case of `CSC1SCC2C(=O)N(C)C(C(C)C)C(=O)OCC(NC(=O)c3cnc4ccccc4n3)C(=O)NC(C)C(=O)N(C)C1C(=O)N(C)C(C(C)C)C(=O)OCC(NC(=O)c1cnc3ccccc3n1)C(=O)NC(C)C(=O)N2C` (configuration not stated), the survivor count is, setting by setting: (dose: 480.0 micrograms/kg/injection, schedule: Q01DX010 (sc), vehicle: saline) 0 of 3 on day 11; (dose: 480.0 micrograms/kg/injection, schedule: Q01DX010 (sc), vehicle: suspension in saline) 0 of 6 on day 11. Consider `S=c1[nH]cc2cnccn12`, for which the T/C (dose: 225.0 mg/kg/injection, schedule: Q04DX004 (sc), vehicle: saline with Tween-80, evaluated on day 15) was 135 % of control.

For `CS(=O)(=O)OCCN(CCOS(C)(=O)=O)c1ccc(C=O)cc1`, the survivor count (dose: 100.0 mg/kg/injection, schedule: Q01DX010 (sc), vehicle: saline) is reported as 0 of 3 on day 11. Consider `N/C(=N\O)c1cn(C2OC(CO)C(O)C2O)c2ncnc(N)c12` (configuration not stated), for which, under “dose: 10.0 mg/kg/injection, schedule: Q04DX004 (sc), vehicle: Klucel (hydroxypropylcellulose) (HPC), evaluated on day 15”, the T/C was 133 % of control. Further, the survivor count is, setting by setting: (dose: 20.0 mg/kg/injection, schedule: Q04DX004 (sc), vehicle: Klucel (hydroxypropylcellulose) (HPC)) 1 of 6 on day 15; (dose: 40.0 mg/kg/injection, schedule: Q04DX004 (sc), vehicle: Klucel (hydroxypropylcellulose) (HPC)) 0 of 6 on day 15. `CCCC(=O)OCc1cc(=O)n(C)c2c3c4c(cc12)c(C)cc(=O)n4CO3`: the survivor count runs as follows: (dose: 400.0 mg/kg/injection, schedule: Q01DX010 (sc), vehicle: Klucel (hydroxypropylcellulose) (HPC)) 3 of 5 on day 11; (dose: 800.0 mg/kg/injection, schedule: Q01DX010 (sc), vehicle: Klucel (hydroxypropylcellulose) (HPC)) 3 of 6 on day 11; (dose: 1600.0 mg/kg/injection, schedule: Q01DX010 (sc), vehicle: Klucel (hydroxypropylcellulose) (HPC)) 1 of 6 on day 11.

Take `COc1cc2cc[n+](C)c(Cc3ccccc3)c2cc1OC`: where the note is “dose: 150.0 mg/kg/injection, schedule: Q04DX004 (sc), vehicle: Klucel (hydroxypropylcellulose) (HPC)”, the survivor count was 0 of 6 on day 15. On to `c1csc(C[N+]23CN4CN(CN(C4)C2)C3)c1`, for which the survivor count (dose: 800.0 mg/kg/injection, schedule: Q04DX004 (sc), vehicle: saline) is reported as 0 of 6 on day 15. Turning to `COc1ccc(CC2C(=O)NC(C)C(=O)N(C)C3Cc4ccc(cc4)Oc4cc(ccc4O)CC(C(=O)NC(C)C(=O)NC(C)C(=O)N2C)N(C)C3=O)cc1` (configuration not stated), the survivor count reads like this: (dose: 32.0 mg/kg/injection, schedule: Q04DX004 (sc), vehicle: saline with Tween-80) 3 of 6 on day 15; (dose: 64.0 mg/kg/injection, schedule: Q04DX004 (sc), vehicle: saline with Tween-80) 0 of 6 on day 15.

For `COC1CC(C)C(OC)C2=CC(=O)C=C(NC(=O)/C(C)=C/C=C\C(C)C(OC(N)=O)/C(C)=C\C(C)C1OC)C2=O` (configuration not stated), the survivor count (dose: 100.0 mg/kg/injection, schedule: Q04DX004 (sc), vehicle: saline + alcohol) is reported as 0 of 6 on day 15. `COc1cc([C@@H]2c3cc4c(cc3[C@@H](OC3OC5COC(C)OC5C(O)C3O)[C@H]3COC(=O)[C@H]23)OCO4)cc(OC)c1O` (some centres not stated): the T/C by setting is: (dose: 8.0 mg/kg/injection, schedule: Q01DX010 (sc), vehicle: saline, evaluated on day 11) 144 % of control; (dose: 16.0 mg/kg/injection, schedule: Q01DX010 (sc), vehicle: saline, evaluated on day 11) 143 % of control. Turning to `C=CC(=O)NCNC(=O)C=C`, the T/C (dose: 100.0 mg/kg/injection, schedule: Q01DX010 (sc), vehicle: saline, evaluated on day 11) is 126 and 147 % of control [2 of 2 alive on day 11]. Moreover, the survivor count (dose: 200.0 mg/kg/injection, schedule: Q01DX010 (sc), vehicle: saline) was 0 of 3 on day 11 and 1 of 3 on day 11.

For `Nc1nc(=S)c2[nH]cnc2[nH]1`, for the setting “dose: 0.2 mg/kg/injection, schedule: Q01DX010 (sc), vehicle: Klucel (hydroxypropylcellulose) (HPC), evaluated on day 11”, the T/C was 125 % of control [2 of 2 alive on day 11]. Further, the survivor count reads like this: (dose: 3.12 mg/kg/injection, schedule: Q01DX010 (sc), vehicle: Klucel (hydroxypropylcellulose) (HPC)) 0 of 3 on day 11; (dose: 6.25 mg/kg/injection, schedule: Q01DX010 (sc), vehicle: Klucel (hydroxypropylcellulose) (HPC)) 0 of 3 on day 11; (dose: 12.5 mg/kg/injection, schedule: Q01DX010 (sc), vehicle: Klucel (hydroxypropylcellulose) (HPC)) 0 of 3 on day 11.
